No constants are given. Whether binding was seen depends on the method and setting. Binding seen in cells or lysates may run through a third protein. Some results given as binding are weak or reduced against the parent protein; the word gives no strength.
How the values were obtained:
[1] = target: T1, BDNF, endogenous in human plasma (human) (UniProt P23560); test: co-immunoprecipitation from human plasma, LC-MS/MS
T1 sequence (looked up): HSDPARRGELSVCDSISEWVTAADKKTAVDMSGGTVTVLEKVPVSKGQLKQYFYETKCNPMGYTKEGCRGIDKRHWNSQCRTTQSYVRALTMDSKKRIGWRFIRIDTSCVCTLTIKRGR

Protein sequences, listed by entry. Tags and fused reporters are not part of them. Residues count along the entry.
UniProt P08138, residues 29-250: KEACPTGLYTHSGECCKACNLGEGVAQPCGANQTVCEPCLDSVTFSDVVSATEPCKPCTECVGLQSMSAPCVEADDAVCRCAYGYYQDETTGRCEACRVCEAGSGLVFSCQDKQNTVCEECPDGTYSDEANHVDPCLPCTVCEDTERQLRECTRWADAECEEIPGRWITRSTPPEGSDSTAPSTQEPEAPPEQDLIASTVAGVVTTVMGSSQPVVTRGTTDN

[2] = target: T1, BDNF, endogenous in human plasma (human); test: co-immunoprecipitation from human plasma with anti-BDNF antibody
[3] = target: T2, NT4/5, endogenous in human plasma (human) (UniProt P34130); test: co-immunoprecipitation from human plasma with anti-NT4/5 antibody
T2 sequence (looked up): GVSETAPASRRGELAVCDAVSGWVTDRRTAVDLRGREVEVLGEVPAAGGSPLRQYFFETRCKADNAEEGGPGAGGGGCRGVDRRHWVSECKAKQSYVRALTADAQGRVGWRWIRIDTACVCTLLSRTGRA

binding [1]: binds
binding [2]: binds
binding [3]: binds
Substance: soluble p75NTR neurotrophin binding protein, p75NTR(NBP), endogenous in human plasma (from UniProt P08138 29-250) (receptor)

From US20150037335A1
